{
  "source": "the supplement of paper PMC10077471",
  "note": "In all, about 1,900 compounds were measured (“excess over highest single agent (ExcessHSA) synergy score, 6x6 matrix”: median about -83, lowest 2% from about -370 on). This is one part of the list.",
  "data": [
    {"tested_on": "NCI-H446", "assay": "excess over highest single agent (ExcessHSA) synergy score, 6x6 matrix; higher = less synergy (more negative = stronger synergy)", "settings": "72 h; CellTiter-Glo viability", "values": [
      {"smiles": "CO[C@H]1/C=C/O[C@@]2(C)Oc3c(C)c(O)c4c(O)c(c(/C=N/N5CCN(C6CCCC6)CC5)c(O)c4c3C2=O)NC(=O)/C(C)=C\\C=C\\[C@H](C)[C@H](O)[C@@H](C)[C@@H](O)[C@@H](C)[C@H](OC(C)=O)[C@@H]1C", "note": "+ Cc1sc2c(c1C)C(c1ccc(Cl)cc1)=N[C@@H](CC(=O)OC(C)(C)C)c1nnc(C)n1-2 [NCGC00250412-19]", "excess over highest single agent": -105},
      {"smiles": "CCCc1cc(C(N)=S)ccn1", "note": "+ Cc1sc2c(c1C)C(c1ccc(Cl)cc1)=N[C@@H](CC(=O)OC(C)(C)C)c1nnc(C)n1-2 [NCGC00250412-19]", "excess over highest single agent": 1.72},
      {"smiles": "CCOC(=O)C1=C(C)NC2=C(C(=O)CC(C)(C)C2)C1c1ccc(-c2ccccc2)cc1", "note": "(stereo not drawn) + Cc1sc2c(c1C)C(c1ccc(Cl)cc1)=N[C@@H](CC(=O)OC(C)(C)C)c1nnc(C)n1-2 [NCGC00250412-19]", "excess over highest single agent": 153},
      {"smiles": "C#Cc1cccc(Nc2ncnc3cc(OC)c(OCCCCCCC(=O)NO)cc23)c1", "note": "+ Cc1sc2c(c1C)C(c1ccc(Cl)cc1)=N[C@@H](CC(=O)OC(C)(C)C)c1nnc(C)n1-2 [NCGC00250412-19]", "excess over highest single agent": -276},
      {"smiles": "O=C(O)[C@]1(Cc2cccc(Nc3nccs3)n2)CC[C@@H](Oc2cccc(Cl)c2F)CC1", "note": "+ Cc1sc2c(c1C)C(c1ccc(Cl)cc1)=N[C@@H](CC(=O)OC(C)(C)C)c1nnc(C)n1-2 [NCGC00250412-19]", "excess over highest single agent": -273},
      {"smiles": "COc1cc2c(NC3CCN(C(C)C)CC3)nc(C3CCCCC3)nc2cc1OCCCN1CCCC1", "note": "+ Cc1sc2c(c1C)C(c1ccc(Cl)cc1)=N[C@@H](CC(=O)OC(C)(C)C)c1nnc(C)n1-2 [NCGC00250412-19]", "excess over highest single agent": -112},
      {"smiles": "CC(C)CNc1ccnc(NCc2csc(-c3ccccc3)n2)n1", "note": "+ Cc1sc2c(c1C)C(c1ccc(Cl)cc1)=N[C@@H](CC(=O)OC(C)(C)C)c1nnc(C)n1-2 [NCGC00250412-19]", "excess over highest single agent": -59},
      {"smiles": "COc1cc2c(Nc3ccc(NC(=O)c4ccccc4)cc3)ncnc2cc1OCCCN1CCOCC1", "note": "+ Cc1sc2c(c1C)C(c1ccc(Cl)cc1)=N[C@@H](CC(=O)OC(C)(C)C)c1nnc(C)n1-2 [NCGC00250412-19]", "excess over highest single agent": 91.6},
      {"smiles": "O=C(NCc1ccccc1)[C@H](Cc1ccccc1)NC(=O)[C@H]1O[C@@H]1C(=O)NCCc1ccc(O)cc1", "note": "+ Cc1sc2c(c1C)C(c1ccc(Cl)cc1)=N[C@@H](CC(=O)OC(C)(C)C)c1nnc(C)n1-2 [NCGC00250412-19]", "excess over highest single agent": -10.6},
      {"smiles": "CN(CC(=O)N(Cc1ccc(C2CCCCC2)cc1)c1ccc(C(=O)O)c(O)c1)S(=O)(=O)c1c(F)c(F)c(F)c(F)c1F", "note": "+ Cc1sc2c(c1C)C(c1ccc(Cl)cc1)=N[C@@H](CC(=O)OC(C)(C)C)c1nnc(C)n1-2 [NCGC00250412-19]", "excess over highest single agent": -91.4},
      {"smiles": "CC(C)(O)[C@H]1CC[C@@](C)([C@H]2[C@@H](O)C[C@@]3(C)[C@@H]4C[C@H](O[C@@H]5O[C@H](CO)[C@@H](O)[C@H](O)[C@H]5O)[C@H]5C(C)(C)[C@@H](O[C@@H]6OC[C@@H](O)[C@H](O)[C@H]6O)CC[C@@]56C[C@@]46CC[C@]23C)O1", "note": "+ Cc1sc2c(c1C)C(c1ccc(Cl)cc1)=N[C@@H](CC(=O)OC(C)(C)C)c1nnc(C)n1-2 [NCGC00250412-19]", "excess over highest single agent": -30.6},
      {"smiles": "NNCCc1ccccc1", "note": "+ Cc1sc2c(c1C)C(c1ccc(Cl)cc1)=N[C@@H](CC(=O)OC(C)(C)C)c1nnc(C)n1-2 [NCGC00250412-19]", "excess over highest single agent": -11.1},
      {"smiles": "COC(=O)Nc1nc2cc(C(=O)c3cccs3)ccc2[nH]1", "note": "+ Cc1sc2c(c1C)C(c1ccc(Cl)cc1)=N[C@@H](CC(=O)OC(C)(C)C)c1nnc(C)n1-2 [NCGC00250412-19]", "excess over highest single agent": -109},
      {"smiles": "CC(C)(C)c1cnc(CSc2cnc(NC(=O)C3CCNCC3)s2)o1", "note": "+ Cc1sc2c(c1C)C(c1ccc(Cl)cc1)=N[C@@H](CC(=O)OC(C)(C)C)c1nnc(C)n1-2 [NCGC00250412-19]", "excess over highest single agent": -215},
      {"smiles": "Cc1cc(=O)c2c(O)c3c(O)cc(=O)c4c3c3c(cc(O)c1c23)C(C)(C)C=4O", "note": "+ Cc1sc2c(c1C)C(c1ccc(Cl)cc1)=N[C@@H](CC(=O)OC(C)(C)C)c1nnc(C)n1-2 [NCGC00250412-19]", "excess over highest single agent": -128},
      {"smiles": "CC(C)c1c(C(=O)Nc2ccccc2)c(-c2ccccc2)c(-c2ccc(F)cc2)n1CC[C@@H](O)C[C@@H](O)CC(=O)O", "note": "+ Cc1sc2c(c1C)C(c1ccc(Cl)cc1)=N[C@@H](CC(=O)OC(C)(C)C)c1nnc(C)n1-2 [NCGC00250412-19]", "excess over highest single agent": -73.4},
      {"smiles": "OC(Cn1cncn1)(Cn1cncn1)c1ccc(F)cc1F", "note": "+ Cc1sc2c(c1C)C(c1ccc(Cl)cc1)=N[C@@H](CC(=O)OC(C)(C)C)c1nnc(C)n1-2 [NCGC00250412-19]", "excess over highest single agent": -24.3},
      {"smiles": "OC[C@H](Cc1ccccc1)Nc1nc(Oc2ccc3c(c2)CCC3)nc2c1ncn2Cc1ccc(-c2ccccc2)cc1", "note": "+ Cc1sc2c(c1C)C(c1ccc(Cl)cc1)=N[C@@H](CC(=O)OC(C)(C)C)c1nnc(C)n1-2 [NCGC00250412-19]", "excess over highest single agent": -24.1},
      {"smiles": "NCCc1c[nH]cn1", "note": "+ Cc1sc2c(c1C)C(c1ccc(Cl)cc1)=N[C@@H](CC(=O)OC(C)(C)C)c1nnc(C)n1-2 [NCGC00250412-19]", "excess over highest single agent": 406},
      {"smiles": "C[C@@H](NCCCc1cccc(C(F)(F)F)c1)c1cccc2ccccc12", "note": "+ Cc1sc2c(c1C)C(c1ccc(Cl)cc1)=N[C@@H](CC(=O)OC(C)(C)C)c1nnc(C)n1-2 [NCGC00250412-19]", "excess over highest single agent": -78},
      {"smiles": "CN1CCc2c(n(Cc3ccc(C(=O)NO)cc3)c3ccccc23)C1", "note": "+ Cc1sc2c(c1C)C(c1ccc(Cl)cc1)=N[C@@H](CC(=O)OC(C)(C)C)c1nnc(C)n1-2 [NCGC00250412-19]", "excess over highest single agent": 215},
      {"smiles": "Cc1cn[nH]c1", "note": "+ Cc1sc2c(c1C)C(c1ccc(Cl)cc1)=N[C@@H](CC(=O)OC(C)(C)C)c1nnc(C)n1-2 [NCGC00250412-19]", "excess over highest single agent": -144},
      {"smiles": "COc1c/c(=C2/C=c3ccccc3=N2)[nH]/c1=C/c1[nH]c(C)cc1C", "note": "+ Cc1sc2c(c1C)C(c1ccc(Cl)cc1)=N[C@@H](CC(=O)OC(C)(C)C)c1nnc(C)n1-2 [NCGC00250412-19]", "excess over highest single agent": -333},
      {"smiles": "COc1ccc(-c2ccc3c(N4CCOC[C@@H]4C)nc(N4CCOC[C@@H]4C)nc3n2)cc1CO", "note": "+ Cc1sc2c(c1C)C(c1ccc(Cl)cc1)=N[C@@H](CC(=O)OC(C)(C)C)c1nnc(C)n1-2 [NCGC00250412-19]", "excess over highest single agent": -247},
      {"smiles": "COc1ccc2c(c1)CCC1C2CCC2(C)C(NCCCCCCN3C(=O)C=CC3=O)CCC12", "note": "(stereo not drawn) + Cc1sc2c(c1C)C(c1ccc(Cl)cc1)=N[C@@H](CC(=O)OC(C)(C)C)c1nnc(C)n1-2 [NCGC00250412-19]", "excess over highest single agent": -206},
      {"smiles": "CC1(C)C(N(O)C(=O)Nc2ccc(Cl)cc2)N(c2ccc(Cl)cc2)C(=O)N1CC(=O)NN=CC=Cc1ccc([N+](=O)[O-])o1", "note": "(stereo not drawn) + Cc1sc2c(c1C)C(c1ccc(Cl)cc1)=N[C@@H](CC(=O)OC(C)(C)C)c1nnc(C)n1-2 [NCGC00250412-19]", "excess over highest single agent": 122},
      {"smiles": "COc1nccc(-c2c(-c3ccc(F)cc3)ncn2C2CCC(O)CC2)n1", "note": "(stereo not drawn) + Cc1sc2c(c1C)C(c1ccc(Cl)cc1)=N[C@@H](CC(=O)OC(C)(C)C)c1nnc(C)n1-2 [NCGC00250412-19]", "excess over highest single agent": -34.6},
      {"smiles": "CC(=O)Oc1ccccc1C(=O)Nc1ncc([N+](=O)[O-])s1", "note": "+ Cc1sc2c(c1C)C(c1ccc(Cl)cc1)=N[C@@H](CC(=O)OC(C)(C)C)c1nnc(C)n1-2 [NCGC00250412-19]", "excess over highest single agent": -27.2},
      {"smiles": "NC(=O)c1ccc(N(C(N)=O)c2c(F)cccc2F)nc1-c1ccc(F)cc1F", "note": "+ Cc1sc2c(c1C)C(c1ccc(Cl)cc1)=N[C@@H](CC(=O)OC(C)(C)C)c1nnc(C)n1-2 [NCGC00250412-19]", "excess over highest single agent": -51.7},
      {"smiles": "N#Cc1ccc(C(c2ccc(C#N)cc2)n2cncn2)cc1", "note": "+ Cc1sc2c(c1C)C(c1ccc(Cl)cc1)=N[C@@H](CC(=O)OC(C)(C)C)c1nnc(C)n1-2 [NCGC00250412-19]", "excess over highest single agent": -259},
      {"smiles": "C[C@@]1(C(=O)Nc2ccc(F)nc2)CCCN1c1nc(Nc2cc(C3CC3)n[nH]2)c2cccn2n1", "note": "+ Cc1sc2c(c1C)C(c1ccc(Cl)cc1)=N[C@@H](CC(=O)OC(C)(C)C)c1nnc(C)n1-2 [NCGC00250412-19]", "excess over highest single agent": -249},
      {"smiles": "Clc1ccc(CCC(Cn2ccnc2)Sc2c(Cl)cccc2Cl)cc1", "note": "(stereo not drawn) + Cc1sc2c(c1C)C(c1ccc(Cl)cc1)=N[C@@H](CC(=O)OC(C)(C)C)c1nnc(C)n1-2 [NCGC00250412-19]", "excess over highest single agent": -18.2},
      {"smiles": "N=C(NCCCCCCNC(=N)NC(=N)Nc1ccc(Cl)cc1)NC(=N)Nc1ccc(Cl)cc1", "note": "+ Cc1sc2c(c1C)C(c1ccc(Cl)cc1)=N[C@@H](CC(=O)OC(C)(C)C)c1nnc(C)n1-2 [NCGC00250412-19]", "excess over highest single agent": -235},
      {"smiles": "COc1c2occc2cc2ccc(=O)oc12", "note": "+ Cc1sc2c(c1C)C(c1ccc(Cl)cc1)=N[C@@H](CC(=O)OC(C)(C)C)c1nnc(C)n1-2 [NCGC00250412-19]", "excess over highest single agent": -204},
      {"smiles": "COc1ccc2c(OCc3nnc4ccc(-c5ccccc5)nn34)ccnc2c1", "note": "+ Cc1sc2c(c1C)C(c1ccc(Cl)cc1)=N[C@@H](CC(=O)OC(C)(C)C)c1nnc(C)n1-2 [NCGC00250412-19]", "excess over highest single agent": 11.1},
      {"smiles": "CCOC(=O)[C@@H](N)Cc1ccc(-c2cc(O[C@H](c3ccc(Cl)cc3-n3ccc(C)n3)C(F)(F)F)nc(N)n2)cc1", "note": "+ Cc1sc2c(c1C)C(c1ccc(Cl)cc1)=N[C@@H](CC(=O)OC(C)(C)C)c1nnc(C)n1-2 [NCGC00250412-19]", "excess over highest single agent": -149},
      {"smiles": "O=S(=O)(F)Cc1ccccc1", "note": "+ Cc1sc2c(c1C)C(c1ccc(Cl)cc1)=N[C@@H](CC(=O)OC(C)(C)C)c1nnc(C)n1-2 [NCGC00250412-19]", "excess over highest single agent": -94.8},
      {"smiles": "CC(C)(O)/C=C/C(=O)[C@](C)(O)[C@H]1[C@H](O)C[C@@]2(C)[C@@H]3CC=C4[C@@H](C=C(O)C(=O)C4(C)C)[C@]3(C)C(=O)C[C@]12C", "note": "+ Cc1sc2c(c1C)C(c1ccc(Cl)cc1)=N[C@@H](CC(=O)OC(C)(C)C)c1nnc(C)n1-2 [NCGC00250412-19]", "excess over highest single agent": -136}
    ]}
  ]
}
